According to US7668586B2, “In vivo multiphoton diagnostic detection and imaging of a neurodegenerative disease” (Cornell Research Foundation, Inc., priority 2000, dated 2010):
For at least one compound, name, drawing or mass did not settle the structure.

Test system: pial arteriole
Experiment: Pial vessel reactivity, closed cranial window, vessel diameter measurement
Conditions: 6-month-old animals

CC(=O)OCC[N+](C)(C)C [ACh, Acetylcholine]
difference in dilation response between Tg+ and Tg− groups: No difference
